These results are taken from PubChem BioAssay AID248 (DTP/NCI, 2004).

Molecules are shown by their SMILES. The list shows only some results of the screen, not a fair sample: it gathers some chemical classes. Other doses and runs of a compound may be missing. T/C gives the treated animals as a percentage of the vehicle group. Some entries give survivors of the animals treated and no T/C: the source holds a T/C of zero for them, seemingly a mark for toxic or unscored doses. Some survivor counts are full or nearly so, which does not show that the dose was tolerated: survival well below the control is almost never listed, so the zero probably covers shortened survival too. Survivors were counted at the toxicity check, usually on the fifth day, unless a day is given; later deaths do not show. Schedules are NCI's codes, taken here to give the interval after Q, in days (D) or hours (H), and the number of doses after X. Where survival is the endpoint, this PubChem deposit counts one and a half times the control or more as active, and values a quarter to a half above the control carry no call in these data; other NCI protocols may use other cut-offs. Some doses were run more than once; the results are listed from low to high. Some entries show no survivor count and are marked so; the dose need not have been tolerated. Some schedules carry Z or #; the key to these is not given. Some T/C values carry the count of animals alive at the toxicity check (mostly the fifth day); without a count or a note in brackets, all were alive then.

The test has as its system L1210 leukemia ip in BDF1 mice, survival T/C. The experiment in a line: NCI In Vivo Anticancer Drug Screen. Data for tumor model L1210 Leukemia (intraperitoneal) in B6D2F1 (BDF1) mice. The conditions noted are these: T/C endpoint: mean survival time, higher T/C = longer survival.
Setting [1] is: dose: 100.0 mg/kg/injection, schedule: Q04DX003 (ip), vehicle: Klucel (hydroxypropylcellulose) (HPC).
The mark [2] stands for this setting: dose: 200.0 mg/kg/injection, schedule: Q04DX003 (ip), vehicle: Klucel (hydroxypropylcellulose) (HPC).
The mark [3] stands for this setting: dose: 400.0 mg/kg/injection, schedule: Q04DX003 (ip), vehicle: Klucel (hydroxypropylcellulose) (HPC).
[4] abbreviates: dose: 100.0 mg/kg/injection, schedule: Q04DX003 (ip), vehicle: saline with Tween-80.
Where [5] appears, read: dose: 100.0 mg/kg/injection, schedule: Q01DX001 (ip), vehicle: saline.
[6] abbreviates: dose: 200.0 mg/kg/injection, schedule: Q01DX001 (ip), vehicle: saline.
[7] abbreviates: dose: 400.0 mg/kg/injection, schedule: Q01DX001 (ip), vehicle: saline.

For `O=CCCc1ccc(N(CCCl)CCCl)cc1`, the T/C under setting [1] is 110 % of control, the T/C under setting [2] is 108 % of control and the T/C under setting [3] is 121 % of control.

On to `Cc1ccc(P(=S)(Cl)Cl)cc1`, for which the T/C is, setting by setting: (dose: 25.0 mg/kg/injection, schedule: Q04DX003 (ip), vehicle: Klucel (hydroxypropylcellulose) (HPC)) 97 % of control; (dose: 50.0 mg/kg/injection, schedule: Q01DX009 (ip), vehicle: Klucel (hydroxypropylcellulose) (HPC)) 93 % of control [4 of 6 alive]; (dose: 50.0 mg/kg/injection, schedule: Q04DX003 (ip), vehicle: Klucel (hydroxypropylcellulose) (HPC)) 91 % of control; under setting [1], 99 and 101 % of control. Besides, the survivor count by setting is: (dose: 100.0 mg/kg/injection, schedule: Q01DX009 (ip), vehicle: Klucel (hydroxypropylcellulose) (HPC)) 3 of 6; (dose: 200.0 mg/kg/injection, schedule: Q01DX009 (ip), vehicle: Klucel (hydroxypropylcellulose) (HPC)) 6 of 6; under setting [2], 5 of 6; under setting [3], 6 of 6.

With `CCP(=O)(Sc1ccccc1)Sc1ccccc1`, the T/C by setting is: (dose: 5.0 mg/kg/injection, schedule: Q01DX001 (ip), vehicle: saline) 100 % of control [survivor count not shown]; (dose: 10.0 mg/kg/injection, schedule: Q01DX001 (ip), vehicle: saline) 103 % of control [survivor count not shown]; (dose: 20.0 mg/kg/injection, schedule: Q01DX001 (ip), vehicle: saline) 105 % of control [survivor count not shown]; (dose: 40.0 mg/kg/injection, schedule: Q01DX001 (ip), vehicle: saline) 102 % of control [survivor count not shown].

As for `O=C(Nc1ccccc1)N(CCCl)CCCl`, the T/C was 96 % of control (dose: 100.0 mg/kg/injection, schedule: Q01DX009 (ip), vehicle: saline with Tween-80); 97 % of control under setting [4]; 98 % of control (dose: 200.0 mg/kg/injection, schedule: Q01DX009 (ip), vehicle: saline with Tween-80); 92 % of control (dose: 200.0 mg/kg/injection, schedule: Q04DX003 (ip), vehicle: saline with Tween-80). The survivor count runs as follows: (dose: 400.0 mg/kg/injection, schedule: Q01DX009 (ip), vehicle: saline with Tween-80) 0 of 6; (dose: 400.0 mg/kg/injection, schedule: Q04DX003 (ip), vehicle: saline with Tween-80) 1 of 6.

Consider `CCOP1OCC(c2ccccc2)O1` (stereo not drawn), for which the T/C under setting [5] was 96 % of control, the T/C under setting [6] is 107 % of control and the T/C under setting [7] was 96 % of control.

Turning to `O=C(O)CCc1ccc(N(CCCl)CCCl)cc1`, the T/C (dose: 2.0 mg/kg/injection, schedule: Q01DX015 (ip), vehicle: saline) is 97 % of control; the T/C (dose: 4.0 mg/kg/injection, schedule: Q01DX015 (ip), vehicle: saline) was 103 % of control; the T/C (dose: 8.0 mg/kg/injection, schedule: Q01DX015 (ip), vehicle: saline) is 114 % of control; the T/C (dose: 16.0 mg/kg/injection, schedule: Q01DX015 (ip), vehicle: saline) is 110 % of control.

For the compound `CCOC(=O)NP(=O)(NC(=O)NOC)NC(=O)NOC`, the T/C runs as follows: under setting [5], 95 % of control; under setting [6], 100 % of control; under setting [7], 101 % of control.

Take `Cc1c([N+](=O)[O-])cc(C(=O)N=[N+]=[N-])cc1[N+](=O)[O-]`: the T/C by setting is: (dose: 25.0 mg/kg/injection, schedule: Q04DX003 (ip), vehicle: saline with Tween-80) 106 % of control; (dose: 50.0 mg/kg/injection, schedule: Q04DX003 (ip), vehicle: saline with Tween-80) 97 % of control; under setting [4], 98 % of control.

For `CC(=O)N/N=C(\N)N[N+](=O)[O-]`, the T/C reads like this: (dose: 25.0 mg/kg/injection, schedule: Q01DX009 (ip), vehicle: saline) 102 % of control [survivor count not shown]; (dose: 50.0 mg/kg/injection, schedule: Q01DX009 (ip), vehicle: saline) 96 [survivor count not shown] and 101 % of control [survivor count not shown]; (dose: 100.0 mg/kg/injection, schedule: Q01DX009 (ip), vehicle: saline) 101 [survivor count not shown] and 120 % of control [survivor count not shown]; (dose: 200.0 mg/kg/injection, schedule: Q01DX009 (ip), vehicle: saline) 93 [survivor count not shown] and 101 % of control [survivor count not shown].

In the case of `N/C(=N\[N+](=O)[O-])N(CCO[N+](=O)[O-])N=O`, the T/C runs as follows: (dose: 2.7 mg/kg/injection, schedule: Q01DX Z (ip), vehicle: methylcellulose (MC)) 138 % of control [survivor count not shown]; (dose: 4.0 mg/kg/injection, schedule: Q01DX Z (ip), vehicle: methylcellulose (MC)) 166 % of control [survivor count not shown]; (dose: 6.0 mg/kg/injection, schedule: Q01DX Z (ip), vehicle: methylcellulose (MC)) 141 % of control [survivor count not shown]; (dose: 9.0 mg/kg/injection, schedule: Q01DX Z (ip), vehicle: methylcellulose (MC)) 135 % of control [survivor count not shown]; (dose: 13.0 mg/kg/injection, schedule: Q01DX Z (ip), vehicle: methylcellulose (MC)) 151 % of control [survivor count not shown]; (dose: 20.0 mg/kg/injection, schedule: Q01DX Z (ip), vehicle: methylcellulose (MC)) 133 % of control [survivor count not shown]. For the same compound, where the note is “dose: 30.0 mg/kg/injection, schedule: Q01DX Z (ip), vehicle: methylcellulose (MC)”, the T/C was 125 % of control [survivor count not shown].

For `N/C(=N\[N+](=O)[O-])NNC=O`, the T/C by setting is: under setting [5], 102 % of control; under setting [6], 86 % of control; under setting [7], 105 % of control.
